# Data from publication doi:10.1101/2024.04.30.591927.
# Chains of the proteins cited; added tags and fusions are not shown. Lines headed by an entry give the natural chain unless they say otherwise; changes in a name come on top.
# UniProt Q62193: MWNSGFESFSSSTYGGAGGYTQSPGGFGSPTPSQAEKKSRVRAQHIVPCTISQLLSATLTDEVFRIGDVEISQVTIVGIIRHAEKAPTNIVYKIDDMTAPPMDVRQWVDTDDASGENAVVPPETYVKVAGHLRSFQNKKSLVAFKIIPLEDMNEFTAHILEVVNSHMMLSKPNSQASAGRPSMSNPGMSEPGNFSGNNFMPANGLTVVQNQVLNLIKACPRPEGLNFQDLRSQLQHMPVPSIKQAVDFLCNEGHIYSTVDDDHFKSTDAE
# UniProt P97931: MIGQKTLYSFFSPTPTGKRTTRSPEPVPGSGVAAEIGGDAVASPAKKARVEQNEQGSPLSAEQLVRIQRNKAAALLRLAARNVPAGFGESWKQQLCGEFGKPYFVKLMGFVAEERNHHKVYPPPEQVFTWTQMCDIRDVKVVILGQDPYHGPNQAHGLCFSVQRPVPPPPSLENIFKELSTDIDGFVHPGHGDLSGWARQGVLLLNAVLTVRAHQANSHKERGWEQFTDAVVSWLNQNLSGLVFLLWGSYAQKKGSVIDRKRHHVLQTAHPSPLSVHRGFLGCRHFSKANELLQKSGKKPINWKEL
# No constants are given. Whether binding was seen depends on the method and setting. In cells and extracts the contact can be indirect. Some binding calls cover weakened binding; strength is not graded here.
# Columns and labels:
# Test in all cases: co-IP
# [1] = molecular target: myc-tagged murine RPA32, wild type, expressed in BOSC-23 cells (mouse) (UniProt Q62193)
# [2] = molecular target: FLAG-tagged murine UNG (mUNG), wild type, expressed in BOSC-23 cells (mouse) (UniProt P97931)
# [3] = molecular target: FLAG-tagged murine UNG R81C, expressed in 3T3-NTZ cells (mouse) (UniProt P97931)
# [4] = molecular target: FLAG-tagged murine UNG (mUNG), wild type, expressed in 3T3-NTZ cells (mouse) (UniProt P97931)
substance,measurement,setting,value
"FLAG-tagged murine UNG (mUNG), wild type, expressed in BOSC-23 cells (from UniProt P97931 1-306) (enzyme)",binding,[1],binds
"myc-tagged murine RPA32, wild type, expressed in BOSC-23 cells (from UniProt Q62193 1-270)",binding,[2],binds
endogenous murine RPA32 (3T3-NTZ cells) (from UniProt Q62193 1-270),binding,[3],binds
same,binding,[4],binds
